Among the data in paper PMC8124814 are binding values, retold here.

The target in the test is X-ray repair cross-complementing protein 1 (XRCC1), human, unlabelled (human) (UniProt P18887). The test can be described thus: cross-linking; glutaraldehyde; equimolar mixtures of the protein pairs; detailed in Supplementary Results; both purified.

These are yes or no findings as the source states them, for the method shown. Some entries that bind do so weakly or less than the wild type.

In the case of “X-ray repair cross-complementing protein 1 (XRCC1), human, unlabelled (from UniProt P18887 1-633) (other; other documents disagree on this pair)”, the binding entry is listed as “binds”.
